Earlier results in patent publication US9855226B2 (Relmada Therapeutics, Inc., priority 2012, dated 2018).

Test system: NE reuptake
Settings: cited from earlier work

Structure (SMILES): CCC(=O)C(C[C@H](C)N(C)C)(c1ccccc1)c1ccccc1 [d-methadone]
- Inhibition of NE reuptake: weak inhibitor of NE reuptake
